The list shows a part of the results. The data scatter; read single values as rough.
Legend:
[1] = compound: ClCC(=O)N[C@@H]1CCCc2ccccc12; assay: log2 mean competition ratio of IA-DTB cysteine labelling (DMSO/compound) (log2 ratio); higher = stronger cysteine engagement by compound; conditions: treatment time: 4 h, cell line lysate: HEK293T
Protocol: (§1)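 IA-DTB competitive cysteine chemoproteomics in HEK293T RIPA lysate. Lysates were treated with compound 29 or 30 at 50 or 200 µM for 4 h, then IA-DTB (500 µM, 1 h), trypsin-digested, NeutrAvidin-enriched and analysed by diaPASEF. Competition ratio = intensity DMSO / intensity compound (n=4 treated, n=64 DMSO); binding: mean log2 CR ≥ 1 and p ≤ 0.05 plus QC filters. Target is the cysteine site.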

By UniProt entry, the sequences of proteins in these tests, tags left out. Where a name states a change or a piece, a line headed by the entry shows the natural chain unless it says otherwise. Residues count along the entry.
UniProt Q86U44, 489-508: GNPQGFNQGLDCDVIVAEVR
UniProt Q8IWI9: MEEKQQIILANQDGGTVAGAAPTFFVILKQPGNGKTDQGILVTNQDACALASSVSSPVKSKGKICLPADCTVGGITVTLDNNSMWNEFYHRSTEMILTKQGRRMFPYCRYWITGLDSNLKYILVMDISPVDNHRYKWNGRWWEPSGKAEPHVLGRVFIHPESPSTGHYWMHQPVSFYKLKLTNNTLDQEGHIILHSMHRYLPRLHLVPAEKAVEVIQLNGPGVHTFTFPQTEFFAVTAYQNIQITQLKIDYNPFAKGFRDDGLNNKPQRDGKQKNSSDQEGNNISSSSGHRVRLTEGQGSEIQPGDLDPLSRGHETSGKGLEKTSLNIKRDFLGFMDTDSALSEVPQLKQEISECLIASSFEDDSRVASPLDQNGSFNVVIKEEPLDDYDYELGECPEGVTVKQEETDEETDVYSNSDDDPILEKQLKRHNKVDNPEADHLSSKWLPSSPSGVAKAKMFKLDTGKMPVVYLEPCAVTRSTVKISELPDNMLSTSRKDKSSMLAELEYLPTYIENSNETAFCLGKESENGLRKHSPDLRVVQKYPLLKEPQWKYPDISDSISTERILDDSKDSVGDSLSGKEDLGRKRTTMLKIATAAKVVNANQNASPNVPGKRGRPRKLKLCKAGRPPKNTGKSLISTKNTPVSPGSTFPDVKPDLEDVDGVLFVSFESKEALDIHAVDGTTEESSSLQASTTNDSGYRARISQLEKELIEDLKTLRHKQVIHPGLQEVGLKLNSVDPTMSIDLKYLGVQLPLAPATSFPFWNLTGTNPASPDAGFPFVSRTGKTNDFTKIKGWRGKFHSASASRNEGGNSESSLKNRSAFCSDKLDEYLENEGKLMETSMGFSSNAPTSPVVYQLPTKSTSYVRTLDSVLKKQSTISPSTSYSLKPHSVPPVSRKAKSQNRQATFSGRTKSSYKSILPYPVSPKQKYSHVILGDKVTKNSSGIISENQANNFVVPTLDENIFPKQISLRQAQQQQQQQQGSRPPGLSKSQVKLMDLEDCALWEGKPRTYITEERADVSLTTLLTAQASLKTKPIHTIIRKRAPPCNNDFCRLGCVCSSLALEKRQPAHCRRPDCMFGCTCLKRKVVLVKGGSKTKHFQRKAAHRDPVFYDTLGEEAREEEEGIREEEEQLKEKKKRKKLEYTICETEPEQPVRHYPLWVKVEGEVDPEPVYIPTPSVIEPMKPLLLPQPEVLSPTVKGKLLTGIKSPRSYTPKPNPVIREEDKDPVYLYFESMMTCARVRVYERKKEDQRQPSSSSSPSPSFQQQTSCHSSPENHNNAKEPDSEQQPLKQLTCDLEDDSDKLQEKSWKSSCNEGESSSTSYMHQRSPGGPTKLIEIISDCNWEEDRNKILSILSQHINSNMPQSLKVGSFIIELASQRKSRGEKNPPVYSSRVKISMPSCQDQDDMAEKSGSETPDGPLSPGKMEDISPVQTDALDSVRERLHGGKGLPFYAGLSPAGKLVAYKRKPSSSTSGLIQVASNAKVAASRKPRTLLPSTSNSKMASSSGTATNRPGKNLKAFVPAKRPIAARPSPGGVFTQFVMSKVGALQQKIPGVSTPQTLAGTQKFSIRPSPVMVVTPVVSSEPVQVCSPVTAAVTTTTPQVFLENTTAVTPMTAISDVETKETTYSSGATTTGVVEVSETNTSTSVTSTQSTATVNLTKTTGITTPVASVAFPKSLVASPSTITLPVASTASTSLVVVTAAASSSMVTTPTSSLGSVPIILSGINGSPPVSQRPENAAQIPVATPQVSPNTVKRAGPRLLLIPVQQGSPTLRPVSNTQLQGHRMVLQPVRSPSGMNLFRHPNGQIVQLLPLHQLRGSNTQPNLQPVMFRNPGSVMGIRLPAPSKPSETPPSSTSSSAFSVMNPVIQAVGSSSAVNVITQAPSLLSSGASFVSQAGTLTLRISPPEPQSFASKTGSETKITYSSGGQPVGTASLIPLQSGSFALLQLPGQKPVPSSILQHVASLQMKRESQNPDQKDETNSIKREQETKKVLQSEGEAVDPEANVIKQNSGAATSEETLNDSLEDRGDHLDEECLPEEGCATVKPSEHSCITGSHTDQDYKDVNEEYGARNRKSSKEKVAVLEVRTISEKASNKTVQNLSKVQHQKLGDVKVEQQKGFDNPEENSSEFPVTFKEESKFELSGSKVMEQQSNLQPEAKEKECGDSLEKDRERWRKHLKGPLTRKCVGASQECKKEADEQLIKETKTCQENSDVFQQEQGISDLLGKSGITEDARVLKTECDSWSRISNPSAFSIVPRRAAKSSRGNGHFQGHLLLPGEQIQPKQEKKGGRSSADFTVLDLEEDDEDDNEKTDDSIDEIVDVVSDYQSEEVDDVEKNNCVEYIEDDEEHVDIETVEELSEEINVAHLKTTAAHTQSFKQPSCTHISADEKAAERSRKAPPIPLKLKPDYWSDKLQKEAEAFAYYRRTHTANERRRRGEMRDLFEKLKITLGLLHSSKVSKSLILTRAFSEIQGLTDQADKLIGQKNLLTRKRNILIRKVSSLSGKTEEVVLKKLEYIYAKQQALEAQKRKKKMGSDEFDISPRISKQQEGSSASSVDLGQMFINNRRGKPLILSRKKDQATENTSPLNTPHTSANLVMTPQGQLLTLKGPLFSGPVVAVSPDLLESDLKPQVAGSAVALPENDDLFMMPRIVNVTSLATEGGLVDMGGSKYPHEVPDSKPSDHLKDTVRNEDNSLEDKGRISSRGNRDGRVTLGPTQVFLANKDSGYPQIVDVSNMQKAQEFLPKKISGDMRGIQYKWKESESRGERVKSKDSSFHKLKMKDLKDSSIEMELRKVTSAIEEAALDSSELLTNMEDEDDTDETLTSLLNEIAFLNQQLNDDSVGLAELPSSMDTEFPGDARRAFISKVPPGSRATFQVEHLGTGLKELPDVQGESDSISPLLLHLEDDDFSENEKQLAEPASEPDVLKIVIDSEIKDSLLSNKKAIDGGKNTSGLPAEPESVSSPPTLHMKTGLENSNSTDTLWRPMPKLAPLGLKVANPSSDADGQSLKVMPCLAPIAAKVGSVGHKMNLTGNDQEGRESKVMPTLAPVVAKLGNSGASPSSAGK
UniProt Q7Z3U7: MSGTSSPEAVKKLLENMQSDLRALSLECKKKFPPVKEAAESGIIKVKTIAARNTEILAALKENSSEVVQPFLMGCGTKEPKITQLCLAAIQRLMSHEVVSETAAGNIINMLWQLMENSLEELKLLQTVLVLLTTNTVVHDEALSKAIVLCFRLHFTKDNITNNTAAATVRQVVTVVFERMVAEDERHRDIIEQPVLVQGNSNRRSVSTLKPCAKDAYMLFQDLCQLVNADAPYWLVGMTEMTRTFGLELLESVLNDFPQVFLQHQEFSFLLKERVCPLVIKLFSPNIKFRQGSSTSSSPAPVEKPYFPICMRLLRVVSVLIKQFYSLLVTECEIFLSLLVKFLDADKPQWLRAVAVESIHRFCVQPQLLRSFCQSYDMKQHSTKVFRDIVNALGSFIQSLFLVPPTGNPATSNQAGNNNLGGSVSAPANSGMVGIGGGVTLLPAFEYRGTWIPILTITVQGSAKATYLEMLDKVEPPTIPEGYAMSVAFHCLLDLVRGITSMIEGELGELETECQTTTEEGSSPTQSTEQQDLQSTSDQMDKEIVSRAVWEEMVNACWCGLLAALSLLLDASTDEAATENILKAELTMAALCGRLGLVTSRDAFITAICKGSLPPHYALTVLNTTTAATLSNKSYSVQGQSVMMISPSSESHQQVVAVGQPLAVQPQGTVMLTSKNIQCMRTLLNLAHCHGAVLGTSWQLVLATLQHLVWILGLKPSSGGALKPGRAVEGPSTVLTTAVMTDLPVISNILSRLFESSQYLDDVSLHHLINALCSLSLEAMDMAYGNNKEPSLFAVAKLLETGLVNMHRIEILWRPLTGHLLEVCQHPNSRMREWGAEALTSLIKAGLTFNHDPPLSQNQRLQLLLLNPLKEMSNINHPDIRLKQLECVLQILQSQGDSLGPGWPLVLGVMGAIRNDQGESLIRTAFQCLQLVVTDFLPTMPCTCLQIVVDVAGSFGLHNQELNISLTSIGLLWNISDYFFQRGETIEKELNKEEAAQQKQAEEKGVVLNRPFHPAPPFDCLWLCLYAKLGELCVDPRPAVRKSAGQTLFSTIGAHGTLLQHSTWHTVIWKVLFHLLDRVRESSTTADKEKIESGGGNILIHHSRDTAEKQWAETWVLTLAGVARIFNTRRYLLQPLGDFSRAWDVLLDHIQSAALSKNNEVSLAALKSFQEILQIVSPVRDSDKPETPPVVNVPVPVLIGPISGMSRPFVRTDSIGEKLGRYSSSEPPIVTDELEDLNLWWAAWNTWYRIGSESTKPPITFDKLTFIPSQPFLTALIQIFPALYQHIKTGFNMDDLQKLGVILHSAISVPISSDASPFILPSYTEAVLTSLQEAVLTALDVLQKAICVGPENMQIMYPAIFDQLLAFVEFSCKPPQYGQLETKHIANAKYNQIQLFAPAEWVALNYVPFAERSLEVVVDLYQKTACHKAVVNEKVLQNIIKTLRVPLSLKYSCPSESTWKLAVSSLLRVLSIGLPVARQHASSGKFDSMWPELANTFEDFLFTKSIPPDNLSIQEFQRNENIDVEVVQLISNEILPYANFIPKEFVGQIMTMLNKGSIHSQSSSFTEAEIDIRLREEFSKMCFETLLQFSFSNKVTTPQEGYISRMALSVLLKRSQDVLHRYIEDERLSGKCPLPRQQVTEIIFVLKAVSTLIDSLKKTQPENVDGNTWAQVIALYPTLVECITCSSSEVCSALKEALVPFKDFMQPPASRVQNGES
UniProt Q6WCQ1: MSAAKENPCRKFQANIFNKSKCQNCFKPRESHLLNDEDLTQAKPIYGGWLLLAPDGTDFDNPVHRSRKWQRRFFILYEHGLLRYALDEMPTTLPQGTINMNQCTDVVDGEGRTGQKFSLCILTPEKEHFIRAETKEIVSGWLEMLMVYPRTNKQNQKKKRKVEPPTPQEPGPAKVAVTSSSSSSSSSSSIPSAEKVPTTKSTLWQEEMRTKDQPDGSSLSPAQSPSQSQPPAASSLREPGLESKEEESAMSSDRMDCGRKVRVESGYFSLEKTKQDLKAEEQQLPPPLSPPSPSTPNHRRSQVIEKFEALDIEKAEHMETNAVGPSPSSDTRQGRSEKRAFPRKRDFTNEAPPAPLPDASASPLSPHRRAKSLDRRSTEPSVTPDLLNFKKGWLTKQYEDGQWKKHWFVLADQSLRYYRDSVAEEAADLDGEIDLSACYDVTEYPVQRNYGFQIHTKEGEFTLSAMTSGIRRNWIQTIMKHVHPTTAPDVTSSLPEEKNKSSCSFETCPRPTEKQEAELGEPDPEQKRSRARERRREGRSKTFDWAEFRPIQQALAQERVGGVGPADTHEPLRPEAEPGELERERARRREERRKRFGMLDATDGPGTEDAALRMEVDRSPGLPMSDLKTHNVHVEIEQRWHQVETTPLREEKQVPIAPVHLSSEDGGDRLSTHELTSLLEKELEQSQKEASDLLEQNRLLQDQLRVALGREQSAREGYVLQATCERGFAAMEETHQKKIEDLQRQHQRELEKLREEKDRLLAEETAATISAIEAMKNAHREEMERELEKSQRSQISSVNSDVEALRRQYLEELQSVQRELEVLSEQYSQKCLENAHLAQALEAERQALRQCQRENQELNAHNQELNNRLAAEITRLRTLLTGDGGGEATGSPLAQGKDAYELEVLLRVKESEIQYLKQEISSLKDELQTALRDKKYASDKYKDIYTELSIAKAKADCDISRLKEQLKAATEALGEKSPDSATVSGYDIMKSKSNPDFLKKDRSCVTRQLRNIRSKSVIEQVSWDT
UniProt Q9HAP2, 180-199: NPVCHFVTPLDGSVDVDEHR
UniProt Q9UL63, whole entry, looked up: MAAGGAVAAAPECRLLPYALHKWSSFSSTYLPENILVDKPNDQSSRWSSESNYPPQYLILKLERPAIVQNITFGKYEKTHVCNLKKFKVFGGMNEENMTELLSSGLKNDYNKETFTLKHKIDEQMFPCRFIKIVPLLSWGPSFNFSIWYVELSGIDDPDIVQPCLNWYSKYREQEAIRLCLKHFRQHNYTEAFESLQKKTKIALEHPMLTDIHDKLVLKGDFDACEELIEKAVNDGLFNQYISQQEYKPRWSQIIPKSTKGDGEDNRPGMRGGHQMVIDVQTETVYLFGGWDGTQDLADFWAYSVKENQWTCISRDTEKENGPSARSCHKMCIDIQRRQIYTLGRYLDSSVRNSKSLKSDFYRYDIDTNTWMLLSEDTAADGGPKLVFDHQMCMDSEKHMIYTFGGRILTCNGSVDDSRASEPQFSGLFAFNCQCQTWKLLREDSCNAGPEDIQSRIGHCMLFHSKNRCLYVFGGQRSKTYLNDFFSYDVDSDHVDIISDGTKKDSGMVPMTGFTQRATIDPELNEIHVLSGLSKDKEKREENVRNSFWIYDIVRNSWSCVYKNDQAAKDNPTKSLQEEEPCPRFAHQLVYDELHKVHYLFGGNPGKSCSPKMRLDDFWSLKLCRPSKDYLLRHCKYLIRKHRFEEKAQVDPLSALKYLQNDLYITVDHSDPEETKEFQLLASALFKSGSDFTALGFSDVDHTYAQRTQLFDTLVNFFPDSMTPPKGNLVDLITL

[2] = compound: ClCC(=O)N[C@H]1CCCc2ccccc12; assay: as above; conditions: treatment time: 4 h, cell line lysate: HEK293T
Protocol: as §1

Target	log2 mean competition ratio ([1]; 50 µM)	log2 mean competition ratio ([1]; 200 µM)	log2 mean competition ratio ([2]; 50 µM)	log2 mean competition ratio ([2]; 200 µM)
MDN1 C5033 (UniProt Q9NU22)	0.0447	-0.173	0.0175	-0.123
MRM3 C290 (UniProt Q9HC36)	0.326	0.169	0.63	0.218
MKI67 C2206 (UniProt P46013)	0.309	0.206	0.515	0.0528
METTL3 C500 (UniProt Q86U44)	0.282	0.171	0.331	-0.165
MIEF2 C233	-0.0362	-0.0611	0.06	0.00812
MGA C2382 (UniProt Q8IWI9)	-0.157	-0.125	-0.0669	0.243
MGA C2241 (UniProt Q8IWI9)	0.173	0.259	0.134	0.334
MPND C63	0.268	0.463	-0.138	-0.254
MORC3 C851 (UniProt Q14149)	0.0432	-0.00445	-0.474	0.289
MGA C1146 (UniProt Q8IWI9)	-0.161	-0.0122	-0.157	0.0936
MON2 C28 (UniProt Q7Z3U7)	-0.283	-0.219	0.157	-0.00169
MGA C1342 (UniProt Q8IWI9)	0.00524	0.23	-0.0145	0.0672
MND1 C147 (UniProt Q9BWT6)	0.282	0.0231	0.258	0.0122
MPRIP C724 (UniProt Q6WCQ1)	0.219	-0.0147	0.00642	0.074
MID1 C248 (UniProt O15344)	0.342	-0.202	-0.0169	-0.333
MID2 C286	-0.814	-0.153	-0.0818	0.119
MINPP1 C232 (UniProt Q9UNW1)	-0.341	0.234	-0.0549	0.233
MORC3 C694 (UniProt Q14149)	-0.104	0.135	-0.0238	0.0838
MRGBP C170 (UniProt Q9NV56)	-0.121	0.0167	0.103	0.161
MLXIP C183 (UniProt Q9HAP2)	0.567	0.127	-0.22	0.217
MMS19 C361 (UniProt Q96T76)	0.231	-0.0954	0.128	-0.219
MKLN1 C82 (UniProt Q9UL63)	0.34	-0.214	0.436	-0.448

Reference: the supplement of paper PMC11732987, “Enantioselective OTUD7B fragment discovery through chemoproteomics screening and high-throughput optimisation” (Communications Chemistry, 2025)
